The values below come from patent US20220144930A1.

Results are given in words; binding and its absence hold for the method and conditions named. Binding can be weak; no strength is given.

The target of experiment [1] is recombinant human VEGF165 protein (human). The experiment can be described thus: ELISA (legend of FIG. 3). For orientation: An ELISA detects its analyte on a solid surface through an enzyme-linked reagent.
For experiment [2] the target is unchanged. Kind of experiment: ELISA (legend of FIG. 4).
Experiment [3] has the same target. The experiment can be described thus: ELISA, protein coated at 0.1, 1 and 10 µg/mL, antibody 1 µg/mL.
Experiment [4] shares this target. Kind of experiment: summary of the ELISA results.
Experiment [5] has the same target. Kind of experiment: phage display library screening (scFv clones).
The target is the same in experiment [6]. The experiment can be described thus: phage ELISA of single scFv clones on coated VEGF165.

B1: humanized antibody VEGF-H988 (antibody, human IgG1, kappa, V domains shown)
VH: QSVQESGPGLVKPSETLSLTCTVSGIDLSSYAISWVRQPPGKGLEYIGYIWNDLFTYYASWAKGRVTISVDTSKNQVDLKLSSVTAADTAVYFCARGTLGDYGGMDPWGQGTLVTVSS
VL: ELQLTQSPSSLSASVGDRVTITCQSSKFLWQGRRLAWYQQKPGKVPKLLIYGASTLASGVPSRFKGSGSGTDFTLTISSLQPEDVATYYCAGYKSYDGDVVGFGGGTKVEIKR
Turning to B1, the binding result in experiment [1], in experiment [2], in experiment [3] and in experiment [4] was “binds” throughout.

B2: rabbit antibody VEGF-R988 (antibody, rabbit IgG1, V domains shown)
VH: QSVEESGGRLVTPGTPLTLTCTVSGIDLSSYAISWVRQAPGKGLEYIGYIWNAGNTYYASWAKGRFTISKTSTTVDLKITSPTTEDTATYFCARGTLGDYNGMDPWGPGTLVTVSS
VL: ELDLTQTPSPVSAAVGGTVTINCQSSQTIYANRRLAWYQQKPGQPPKLLIYGASTLASGVPSRFKGSGSGTQFTLTISGVQCDDAATYYCAGYKSYDGDDVGFGGGTEVVVK
With B2, the binding entry in experiment [5] and in experiment [6] was “binds” each time.

B3: rabbit antibody VEGF-R859 (antibody, rabbit IgG1)
scFv: DVVMTQTAASVSEPVGGTVTIKCQASQSIRSWLSWYQQKPGQPPKLLIYQASKLASGVPSRFKGSGYGTEFTLTISDLECADAATYYCQNNYSFSKDGGAFGGGTEVVVKSSGGGGSGGGGGGSSRSSQSVEESGGRLVTPGTPLTLTCQVSGFSLNIYDMTWVRQAPGKGLEWIGIIAPDDSAYYANWAKGRFTISKTSTTVDLKMTSPTTEDTATYFCARNAYSSGWGGDLWGPGTLVTVSS
Consider B3, for which the binding result in experiment [5] and in experiment [6] was “binds” in each case.

B4: rabbit antibody VEGF-R812 (antibody, rabbit IgG1)
scFv: ELVLTQTPASVEAAVGGTVTIKCQASQSINSWLSWYQQKPGQRPKLLIYQASKLASGVPSRFKGSGSGTEYTLTISDLECADAATYYCQNNLGGGDGSYGLPFGGGTEVVVKSSGGGGSGGGGGGSSRSSQSLEESGGRLVTPGGSLTLTCTASGFDLGIYEITWVRQAPGKGLEWIGVIYGDGDTVYANWAKGRFTISKTSTTVDLKISSPTTEDTATYFCARNGYTTGWGGDLWGPGTLVTVSS
B4: the binding result in experiment [5] and in experiment [6] was “binds” throughout.

B5: rabbit antibody VEGF-R613 (antibody, rabbit IgG1)
scFv: ELVMTQTPSPVSAAVGGTVTINCQSSQSVYSNNRLAWYQQKPGQPPKLLIYGASTLASGVPSRFKGSGSGTQFTLTISDVQCDDAATYYCAGYKSYDGDDVGFGGGTEVVVKSSGGGGSGGGGGGSSRSSQSVEESGGRLVTPGTPLTLTCTVSGIDLSSYAISWVRQAPGKGLEYIGYIWSTDNTYYASWAKGRFTISEASTTVDLKITSPTTEDTATYFCARGTLGDYNGMDPWGPGTLVTVSS
For B5, the binding entry in experiment [5] and in experiment [6] was “binds” each time.
